# Primary screen of a compound library

Protein sequences, listed by entry. Tags and fused reporters are not part of them. Residues count along the entry.
UniProt Q8IDJ8, 1-583: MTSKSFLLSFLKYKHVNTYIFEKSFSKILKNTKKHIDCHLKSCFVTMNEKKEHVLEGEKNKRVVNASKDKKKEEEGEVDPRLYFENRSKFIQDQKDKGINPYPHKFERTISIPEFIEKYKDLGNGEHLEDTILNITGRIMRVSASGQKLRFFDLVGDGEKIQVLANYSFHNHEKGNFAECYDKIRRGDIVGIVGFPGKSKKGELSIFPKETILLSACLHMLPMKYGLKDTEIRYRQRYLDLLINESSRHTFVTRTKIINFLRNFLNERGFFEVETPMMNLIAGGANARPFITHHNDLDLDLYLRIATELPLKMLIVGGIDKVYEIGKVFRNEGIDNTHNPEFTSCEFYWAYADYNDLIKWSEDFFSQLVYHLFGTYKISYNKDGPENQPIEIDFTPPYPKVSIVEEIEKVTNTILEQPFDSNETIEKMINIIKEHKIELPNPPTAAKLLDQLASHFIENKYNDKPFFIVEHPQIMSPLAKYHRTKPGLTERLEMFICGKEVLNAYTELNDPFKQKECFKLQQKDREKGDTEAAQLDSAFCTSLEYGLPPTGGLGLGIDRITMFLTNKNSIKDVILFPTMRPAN
UniProt P9WFT3, whole entry: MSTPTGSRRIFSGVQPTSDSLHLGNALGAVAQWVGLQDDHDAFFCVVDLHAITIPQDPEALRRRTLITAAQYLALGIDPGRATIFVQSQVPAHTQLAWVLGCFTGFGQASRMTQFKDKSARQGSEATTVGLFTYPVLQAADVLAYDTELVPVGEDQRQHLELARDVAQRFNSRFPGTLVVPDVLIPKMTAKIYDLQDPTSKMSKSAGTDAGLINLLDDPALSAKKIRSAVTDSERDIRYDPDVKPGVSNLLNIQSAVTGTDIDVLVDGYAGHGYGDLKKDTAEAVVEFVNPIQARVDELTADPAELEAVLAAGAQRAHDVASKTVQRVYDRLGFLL
UniProt P9WPC5, whole entry: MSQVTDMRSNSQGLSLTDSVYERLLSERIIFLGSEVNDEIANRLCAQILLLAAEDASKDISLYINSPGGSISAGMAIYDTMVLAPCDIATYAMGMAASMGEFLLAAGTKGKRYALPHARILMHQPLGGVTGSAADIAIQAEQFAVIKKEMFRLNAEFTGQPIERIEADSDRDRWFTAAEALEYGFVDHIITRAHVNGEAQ
UniProt P9WPC3, whole entry partner: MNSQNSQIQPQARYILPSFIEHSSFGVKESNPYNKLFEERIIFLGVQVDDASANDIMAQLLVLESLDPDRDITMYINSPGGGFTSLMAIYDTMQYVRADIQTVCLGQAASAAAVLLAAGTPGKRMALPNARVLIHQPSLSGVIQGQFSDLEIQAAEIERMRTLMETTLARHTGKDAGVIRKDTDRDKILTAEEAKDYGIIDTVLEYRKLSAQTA

Source: ChEMBL document CHEMBL3988442, “University of Dundee, Small-Polar-MMV Screening Library” (2021).

Results are given as percent effect. The controls that fix the scale are not given in the record; negative values are as filed. This is an unselected part of the compounds tested. A dash means the value is not listed here; it may have been measured.

PfKRS1: 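Enzyme assay of the cytosolic lysyl-tRNA synthetase in 384-well plates, read by luminescence. Target: Lysine-tRNA ligase, Plasmodium falciparum 3D7 (UniProt Q8IDJ8). Compounds at 30 µM. Direction is inferred from only a few compounds that gave an IC50; most scored high, so higher reads as stronger inhibition. Of about 69,000 compounds tested this way, about 49 (0.071%) reached 50% or more in at least one test.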
MtTrpRS: 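Enzyme assay of tryptophanyl-tRNA synthetase; the read-out is not stated. Target: Tryptophan-tRNA ligase, Mycobacterium tuberculosis (UniProt P9WFT3). Compounds at 10 µM. Higher most likely means stronger inhibition; the record gives no direction and few retests gave an IC50. About 65,000 compounds were tested under these conditions; 0.098% (about 64) showed 50% or more at least once.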
ClpP1P2: 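Protease assay of ClpP1P2, read by the AMC dye that it sets free. Target: ClpP1P2, Mycobacterium tuberculosis (UniProt P9WPC5 and UniProt P9WPC3). Tested at 50 µM. Direction is inferred from only a few compounds that gave an IC50; most scored high, so higher reads as stronger inhibition. Most other retested compounds had strongly negative values. Size under these conditions: about 69,000 compounds, about 10 of them at 50% or above in at least one test.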

| SMILES | PfKRS1 | MtTrpRS | ClpP1P2 |
|---|---|---|---|
| `CC(C)COc1cncc(N2CCCN(CC(F)(F)F)CC2)n1` | 3.14 | -1.497 | -3.114 |
| `Cn1c(N)nnc1SCc1cc(Br)ccc1Cl` | 6.835 | 3.194 | -6.79 |
| `CCn1c(NCc2ccco2)nc2c(C)nn(C)c2c1=O` | 1.481 | 13.87 | 7.993 |
| `CCOc1ccccc1N1CCN(CC2(O)CCCNC2)CC1` (centres unmarked) | 1.619 | -3.931 | -11.12 |
| `CNC(=O)CCN(C)c1nc(-c2ccncc2)nc2c1CCNC2` | 0.09314 | 3.132 | 23.1 |
| `Cc1ncsc1CN1CCN(C2CCOCC2)CC(C(N)=O)C1` (centres unmarked) | -3.02 | - | -13.82 |
| `CN(C)c1nc(CNC(=O)Nc2cccc([S+](C)[O-])c2)cs1` (centres unmarked) | 0.355 | 4.542 | -4.37 |
| `Cn1cnc2c1CCN(Cc1csc(-c3ccccc3F)n1)C2` | 0.1004 | -45.05 | -19.83 |
| `COc1ccc(-n2c(CCC(=O)O)nc3ccccc32)cc1CO` | 4.943 | 1.679 | 1.276 |
| `Cc1nccn1-c1cc(CNC(=O)CC2CCCO2)ccn1` (centres unmarked) | -2.011 | 4.302 | 14.71 |
| `O=C(CCn1cccn1)NCCOc1ncc(Cl)cc1Cl` | 0.9319 | 2.877 | 0.0984 |
| `COCCN(C)C[C@@H]1CN(C(=O)c2c(C)cccc2OC)C[C@@H]1CO` | -1.616 | -0.5387 | -10.47 |
| `CSc1ccc(CN2C[C@@H]3CC[C@@](O)(c4ccc(C)cn4)[C@@H]3C2)cc1` | 0.69 | - | 12.1 |
| `CCN(CC)CCCC(C)NC(=O)c1cccnc1-n1cccn1` (centres unmarked) | 3.539 | -0.4841 | 11.4 |
| `Cn1cccc1C(=O)N[C@@H]1CN(S(C)(=O)=O)[C@@H]2COC[C@@H]21` | 3.846 | -4.394 | -16.98 |
| `CC(C)(C)c1cc(NC(=O)CN2CCCCC2Cn2cncn2)on1` (centres unmarked) | 4.616 | 0.1032 | -0.3896 |
| `COc1ccc(C(NCc2ccc(C#N)cc2)C2CC2)cc1` (centres unmarked) | 2.826 | 6.989 | -5.729 |
| `CCc1[nH]ncc1C(=O)N1CCCC(n2cccn2)C1` (centres unmarked) | 9.894 | -3.801 | -3.788 |
| `Cn1nc(CNC(=O)CN2C(=O)CCC2=O)cc1C1CC1` | -1.528 | -3.419 | -8.162 |
| `Cc1nc2ccccc2n1CCNCc1cccc(O)c1` | 0.1416 | 2.673 | 0.8875 |
| `Cc1cc(C(=O)N[C@H]2CC[C@@]3(CCC(=O)N3C)CC2)no1` | 1.101 | -2.021 | -15.87 |
| `Cc1nnc(-c2cccc(N3CCC(NC4CCSC4)CC3)c2)s1` (centres unmarked) | 4.072 | 2.006 | -14.6 |
| `Cn1cc(C2CC(=O)NC23CCN(C(=O)Cc2ccccn2)CC3)cn1` (centres unmarked) | 1.604 | -4.699 | -17.63 |
| `N#Cc1nccnc1N1CCC(OCCCc2ccccc2)C1` (centres unmarked) | 0.6561 | 0.3173 | -36 |
| `CN(C)C1CCN(C(=O)c2cc3c(s2)CCN3C(=O)C2CC2)CC1` | 1.757 | -1.262 | 8.432 |
| `CCOc1cc(C)nc(N2CCN(C(=O)c3csnn3)CC2)n1` | 0.4613 | -1.83 | -8.338 |
| `CN(C)CCN1CCN(C)C2(CCN(c3nccs3)CC2)C1=O` | -0.07513 | -5.07 | -0.01674 |
| `CC(=O)Nc1cccc2c1ccn2CC(=O)Nc1n[nH]c(CC(C)C)n1` | 1.53 | 0.06324 | -8.766 |
| `COc1ccc(-c2nnc(CNCCn3cc(C)cn3)o2)cc1` | 0.3752 | 10.51 | -261.6 |
| `CCn1nc(C)c(NC(=O)c2nnn(Cc3ccccc3)c2OC)c1C` | 3.788 | 3.109 | -2.779 |
| `CN(Cc1cccnc1)c1nccc(N2CCN[C@H]3CS(=O)(=O)C[C@H]32)n1` | 2.523 | -7.346 | -10.95 |
| `O=C(O)c1ccccc1C1CCN(Cc2ccc(-c3cc[nH]n3)o2)C1` (centres unmarked) | 7.262 | 3.084 | -4.249 |
| `COc1ccc(OC)c(C2SCC(=O)Nc3n[nH]cc32)c1` (centres unmarked) | 4.674 | 0.2712 | -10.44 |
| `CC(C)C1CN(Cc2c[nH]cn2)CCCN1CC1CC1` (centres unmarked) | 2.702 | -2.207 | 9.235 |
| `COc1ccc(F)c(NCc2cnn(C3CCS(=O)(=O)C3)c2)c1` (centres unmarked) | -0.6628 | -3.406 | 12.14 |
| `Cc1cnc(C(C)(C)NC(=O)NCc2ccon2)s1` | 5.077 | 0.1211 | -1.591 |
| `Cc1noc(C)c1CN1CC[C@H]2OCC[C@@H](C(=O)N3CCCO3)[C@H]2C1` | -0.4823 | 5.045 | -6.368 |
| `O=C1OCCN1C1CCN(Cc2cc3n(n2)CCCNC3)CC1` | 0.9358 | 7.942 | -8.006 |
| `CCC(=O)N1CCc2[nH]cnc2C12CCN(C(=O)CCS(C)(=O)=O)CC2` | 1.278 | -1.706 | 3.672 |
| `Cc1cc(N2CCC(NCCOc3ccccc3)CC2)nc(C)n1` | 1.931 | 0.3276 | 3.074 |
| `CCc1nc(CN2CCCC(Nc3ncnc4ccsc34)C2)no1` (centres unmarked) | 7.15 | 1.816 | -2.97 |
| `COc1ccc(CCC(=O)N2CCNCC2C(=O)N2CCOCC2)cc1` (centres unmarked) | 2.887 | 0.1566 | -7.682 |

Once more, the final 4:

- CCC(=O)N1CCc2[nH]cnc2C12CCN(C(=O)CCS(C)(=O)=O)CC2 : PfKRS1: 1.278%; MtTrpRS: -1.706%; ClpP1P2: 3.672%
- Cc1cc(N2CCC(NCCOc3ccccc3)CC2)nc(C)n1 : PfKRS1: 1.931%; MtTrpRS: 0.3276%; ClpP1P2: 3.074%
- CCc1nc(CN2CCCC(Nc3ncnc4ccsc34)C2)no1 (centres unmarked) : PfKRS1: 7.15%; MtTrpRS: 1.816%; ClpP1P2: -2.97%
- COc1ccc(CCC(=O)N2CCNCC2C(=O)N2CCOCC2)cc1 (centres unmarked) : PfKRS1: 2.887%; MtTrpRS: 0.1566%; ClpP1P2: -7.682%